Drawing on article PMC7926307, this text covers binding for three molecules.

By UniProt entry, the sequences of proteins in these tests, tags left out. Residues count along the entry.
UniProt Q9UBS4, residues 23-358: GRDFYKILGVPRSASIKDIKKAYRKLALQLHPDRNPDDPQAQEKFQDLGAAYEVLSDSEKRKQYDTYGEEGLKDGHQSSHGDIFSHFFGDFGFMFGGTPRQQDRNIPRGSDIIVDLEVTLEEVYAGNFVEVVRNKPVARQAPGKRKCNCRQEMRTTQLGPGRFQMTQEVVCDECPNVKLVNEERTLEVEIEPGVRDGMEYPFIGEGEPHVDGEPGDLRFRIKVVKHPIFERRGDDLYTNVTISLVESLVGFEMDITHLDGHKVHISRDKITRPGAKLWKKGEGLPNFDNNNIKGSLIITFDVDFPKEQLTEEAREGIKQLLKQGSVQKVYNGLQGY
UniProt P11021, residues 19-654: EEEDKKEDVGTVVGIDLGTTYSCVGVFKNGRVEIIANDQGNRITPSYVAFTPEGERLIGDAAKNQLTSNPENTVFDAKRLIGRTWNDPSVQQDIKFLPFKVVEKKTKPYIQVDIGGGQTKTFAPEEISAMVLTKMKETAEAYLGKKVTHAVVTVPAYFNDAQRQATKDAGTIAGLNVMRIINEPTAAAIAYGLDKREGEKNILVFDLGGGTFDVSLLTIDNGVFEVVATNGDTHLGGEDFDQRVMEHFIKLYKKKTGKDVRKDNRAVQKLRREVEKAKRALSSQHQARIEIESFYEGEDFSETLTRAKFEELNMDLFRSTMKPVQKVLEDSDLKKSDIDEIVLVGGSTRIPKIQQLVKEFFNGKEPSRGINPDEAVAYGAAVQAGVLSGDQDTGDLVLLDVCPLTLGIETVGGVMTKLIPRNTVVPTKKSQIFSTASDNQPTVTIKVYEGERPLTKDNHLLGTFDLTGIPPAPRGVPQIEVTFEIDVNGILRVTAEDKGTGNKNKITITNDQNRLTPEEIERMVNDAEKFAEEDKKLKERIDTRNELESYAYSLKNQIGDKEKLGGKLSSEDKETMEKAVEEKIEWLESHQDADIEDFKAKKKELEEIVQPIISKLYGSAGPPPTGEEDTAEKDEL

No constants are given. Whether binding was seen depends on the method and setting. In cells and extracts the contact can be indirect. A yes stands for co-enrichment or nearness to the bait. Other partners may have been found. Where a sequence is shown, tags or fusion partners need not be part of it.

The assay has as its target T1, EDEM3 wild type, HA-tagged (murine EDEM3) (mouse) (UniProt Q2HXL6).
T1 sequence: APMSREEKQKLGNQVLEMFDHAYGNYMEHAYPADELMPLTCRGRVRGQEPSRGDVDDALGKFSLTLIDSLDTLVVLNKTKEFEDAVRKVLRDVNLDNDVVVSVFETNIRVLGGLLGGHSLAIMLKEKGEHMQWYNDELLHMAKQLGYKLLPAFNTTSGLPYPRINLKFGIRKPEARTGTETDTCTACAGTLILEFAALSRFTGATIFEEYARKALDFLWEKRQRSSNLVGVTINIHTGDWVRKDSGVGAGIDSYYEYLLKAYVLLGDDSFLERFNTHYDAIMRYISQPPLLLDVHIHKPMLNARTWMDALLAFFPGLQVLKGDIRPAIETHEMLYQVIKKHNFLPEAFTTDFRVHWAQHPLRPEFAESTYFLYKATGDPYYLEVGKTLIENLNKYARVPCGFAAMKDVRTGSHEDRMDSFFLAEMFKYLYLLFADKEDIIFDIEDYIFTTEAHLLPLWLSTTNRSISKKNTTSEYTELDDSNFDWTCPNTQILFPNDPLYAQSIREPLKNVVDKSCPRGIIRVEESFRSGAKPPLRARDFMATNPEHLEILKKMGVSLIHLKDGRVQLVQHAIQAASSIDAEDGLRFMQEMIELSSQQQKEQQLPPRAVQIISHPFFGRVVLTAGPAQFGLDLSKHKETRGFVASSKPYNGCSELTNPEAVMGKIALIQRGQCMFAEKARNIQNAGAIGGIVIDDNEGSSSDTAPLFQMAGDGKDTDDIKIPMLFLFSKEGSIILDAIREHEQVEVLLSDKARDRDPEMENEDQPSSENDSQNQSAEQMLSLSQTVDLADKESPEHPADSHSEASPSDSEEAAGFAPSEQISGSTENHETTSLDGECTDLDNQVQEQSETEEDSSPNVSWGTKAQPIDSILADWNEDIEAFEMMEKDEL
Put plainly: affinity purification with mass spectrometry; WT EDEM3 expressed in EDEM3-KO cells, digitonin lysis buffer, immunoprecipitated with anti-EDEM3 antibodies; co-precipitated proteins separated by SDS-PAGE, trypsinized, LC-MS/MS; spectral count ratios of sample/control.

With DNAJB11 (from UniProt Q9UBS4 23-358), the binding result was “binds”. As for HSPA5/BiP (from UniProt P11021 19-654), the entry is “binds”.

B1: PRDX4 (protein, UniProt Q13162 38-271)
chain: WETEERPRTREEECHFYAGGQVYPGEASRVSVADHSLHLSKAKISKPAPYWEGTAVIDGEFKELKLTDYRGKYLVFFFYPLDFTFVCPTEIIAFGDRLEEFRSINTEVVACSVDSQFTHLAWINTPRRQGGLGPIRIPLLSDLTHQISKDYGVYLEDSGHTLRGLFIIDDKGILRQITLNDLPVGRSVDETLRLVQAFQYTDKHGEVCPAGWKPGSETIIPDPAGKLKYFDKLN
For the molecule B1, the binding result is “binds”.
